# Results from cells or extracts need not show a direct contact. For some assays here: Negatives hold for the conditions tested. For some assays here: Where a protein sequence is shown, tags need not be part of it.
# By UniProt entry, the sequences of proteins in these tests, tags left out. Residues count along the entry.
# UniProt P42224, 2-750: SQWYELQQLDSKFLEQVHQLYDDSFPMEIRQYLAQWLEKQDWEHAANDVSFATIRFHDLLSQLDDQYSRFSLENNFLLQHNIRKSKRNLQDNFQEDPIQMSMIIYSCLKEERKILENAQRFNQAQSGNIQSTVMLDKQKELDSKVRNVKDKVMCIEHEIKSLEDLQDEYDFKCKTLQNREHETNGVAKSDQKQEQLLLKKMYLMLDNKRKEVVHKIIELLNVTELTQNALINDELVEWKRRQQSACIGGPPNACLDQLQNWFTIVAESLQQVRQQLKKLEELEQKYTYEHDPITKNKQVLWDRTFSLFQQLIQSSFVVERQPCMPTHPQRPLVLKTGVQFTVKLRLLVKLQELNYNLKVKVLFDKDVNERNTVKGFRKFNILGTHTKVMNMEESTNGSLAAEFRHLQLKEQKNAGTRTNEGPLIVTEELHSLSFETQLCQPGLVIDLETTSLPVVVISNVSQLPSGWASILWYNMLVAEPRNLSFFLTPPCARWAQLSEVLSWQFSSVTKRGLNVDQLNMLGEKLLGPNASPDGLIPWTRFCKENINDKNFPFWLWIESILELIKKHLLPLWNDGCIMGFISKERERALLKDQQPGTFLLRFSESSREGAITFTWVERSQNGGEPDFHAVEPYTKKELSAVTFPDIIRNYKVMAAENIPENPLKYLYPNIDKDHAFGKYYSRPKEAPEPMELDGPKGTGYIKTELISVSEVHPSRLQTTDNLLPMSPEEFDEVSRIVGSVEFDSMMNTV
# UniProt P40763, 2-770: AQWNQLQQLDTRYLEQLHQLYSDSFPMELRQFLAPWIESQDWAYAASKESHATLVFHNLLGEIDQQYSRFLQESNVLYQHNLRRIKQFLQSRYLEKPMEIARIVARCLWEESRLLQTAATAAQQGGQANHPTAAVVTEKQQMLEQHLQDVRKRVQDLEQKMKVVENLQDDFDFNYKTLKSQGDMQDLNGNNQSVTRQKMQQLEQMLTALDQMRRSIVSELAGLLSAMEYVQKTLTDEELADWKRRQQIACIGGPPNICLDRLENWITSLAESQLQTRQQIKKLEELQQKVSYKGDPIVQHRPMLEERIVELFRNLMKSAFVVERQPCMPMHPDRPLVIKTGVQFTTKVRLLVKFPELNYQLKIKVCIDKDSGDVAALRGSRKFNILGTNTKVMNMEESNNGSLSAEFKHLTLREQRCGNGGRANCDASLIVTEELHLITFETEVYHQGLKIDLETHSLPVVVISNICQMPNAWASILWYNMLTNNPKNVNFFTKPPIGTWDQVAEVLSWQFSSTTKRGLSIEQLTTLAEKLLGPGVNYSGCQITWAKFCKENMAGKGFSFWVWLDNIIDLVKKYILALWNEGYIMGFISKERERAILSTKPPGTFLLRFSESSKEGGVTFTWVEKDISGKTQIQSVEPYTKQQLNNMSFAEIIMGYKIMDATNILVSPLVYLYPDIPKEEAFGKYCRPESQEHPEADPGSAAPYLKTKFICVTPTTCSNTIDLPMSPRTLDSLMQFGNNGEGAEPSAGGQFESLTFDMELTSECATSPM
# Legend:
# [1] = target: Stat 1 (Y3/P1 complex) (Homo sapiens) (UniProt P42224); assay: EMSA; settings: Y3/P1 complex supershifted by Stat 1 antibody; competed by specific DNA; protein in an extract
# [2] = target: Stat 3 (Y1 complex) (Homo sapiens) (UniProt P40763); assay: EMSA; settings: constitutive Y1 complex altered by Stat 3 antibody; specific by competition; protein in an extract; protein details: native, YT cell nuclear extract
# [3] = target: T1, hStat 5 (Y2/P2 complex, MGF/Stat 5-related) (Homo sapiens) (UniProt P42229); assay: EMSA; settings: protein in an extract
# T1 sequence: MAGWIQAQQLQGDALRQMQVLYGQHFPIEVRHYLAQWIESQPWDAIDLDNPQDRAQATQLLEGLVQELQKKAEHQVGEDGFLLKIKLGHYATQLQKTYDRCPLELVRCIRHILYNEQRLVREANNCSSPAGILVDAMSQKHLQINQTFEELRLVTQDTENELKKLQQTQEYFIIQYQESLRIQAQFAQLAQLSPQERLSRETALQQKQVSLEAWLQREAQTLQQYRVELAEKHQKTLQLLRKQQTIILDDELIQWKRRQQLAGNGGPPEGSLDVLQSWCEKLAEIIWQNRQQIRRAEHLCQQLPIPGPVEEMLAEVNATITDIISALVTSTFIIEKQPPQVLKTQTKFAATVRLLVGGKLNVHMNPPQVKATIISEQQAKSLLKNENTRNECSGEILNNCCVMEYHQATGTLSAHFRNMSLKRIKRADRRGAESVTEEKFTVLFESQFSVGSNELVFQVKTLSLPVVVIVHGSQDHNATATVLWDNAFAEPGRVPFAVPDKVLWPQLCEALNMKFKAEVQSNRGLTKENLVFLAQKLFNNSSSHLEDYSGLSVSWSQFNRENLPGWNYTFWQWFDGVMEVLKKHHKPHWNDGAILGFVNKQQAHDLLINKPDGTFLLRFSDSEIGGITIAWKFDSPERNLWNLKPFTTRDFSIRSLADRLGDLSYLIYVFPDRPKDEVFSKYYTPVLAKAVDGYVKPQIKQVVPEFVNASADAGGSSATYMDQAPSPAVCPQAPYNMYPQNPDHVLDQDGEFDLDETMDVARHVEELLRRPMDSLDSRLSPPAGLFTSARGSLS
# [4] = target: Stat 1 (Y3/P1 complex) (Homo sapiens) (UniProt P42224); assay: competition with a labelled probe; settings: 100-fold molar excess mutant does not compete P1/Y3; protein in an extract; variant of FcgRI IL-4 response element probe
# [5] = target: T1, hStat 5 (Y2/P2 complex, MGF/Stat 5-related) (Homo sapiens); assay: competition with a labelled probe; settings: 100-fold molar excess mutant does not compete (stated for Y2); protein in an extract; variant of FcgRI IL-4 response element probe
Sequence,binding result [1],binding result [2],binding result [3],binding result [4],binding result [5]
GTATTTCCCAGAAAAGGAAC (double strand) [FcgRI IL-4 response element probe],binds,binds,binds,,
GTATCACCCAGTCAAGGAAC (double strand) [mutated FcgRI probe],,,,no binding,no binding
